# The supplement of paper PMC12578635
# ± gives the standard deviation of the averaged measurements. The list shows a part of the results. Many values rest on one well or one pass, so single values are uncertain.
# Test system: RAW 264.7 macrophages infected with S. aureus JE2-lux
# Experiment: host macrophage viability (CellTiter-Fluor) relative to DMSO vehicle; higher = more viable host cells
# Conditions: 10 µM; treatment time 4 h; gentamicin 50 µg/ml
row,SMILES,host macrophage viability [%]
1,O=C(CSc1nc(O)c2nc[nH]c2n1)N1CCN(c2ccccc2F)CC1,101
2,COc1cccc(NC(=O)CSc2ncnc3c2sc2nc4ccccc4cc23)c1,110
3,CC(NC(=O)Cc1csc2nc(-c3ccc(F)cc3)cn12)c1ccccc1 (centres undefined),98.4
4,O=C(NCc1ccco1)c1cnc2n(c1=O)CCS2,137
5,CCOC(=O)c1sc(NC(=O)CSC2=NN3CCCC(=O)N=C3S2)c(C(=O)OCC)c1C,120
6,COc1c(Br)ccc2c1sc1ncnc(OC)c12,116
7,CCS(=O)(=O)c1cccc(C(=O)Nc2nc3c(s2)COc2ccccc2-3)c1,124
8,COC(=O)c1ccc2nc(NC(=O)c3ccc(C)cc3C)sc2c1,117
9,COc1ccc(C(=O)Nc2ccc3nc[nH]c3c2)cc1OC,107
10,O=C(Nc1ccon1)c1cccn(OCc2ccccc2F)c1=O,102
11,CCS(=O)(=O)c1ccc(C(=O)/N=c2/sc3cccc(Cl)c3n2C)cc1,102
12,Cc1ccc(C)c2[nH]c(=O)c(CCNC(=O)COc3ccc(Cl)cc3Cl)cc12,130
13,O=C1COc2ccc(S(=O)(=O)Nc3cccc(C(=O)N4CCOCC4)c3)cc2N1,91.6
14,Cc1csc2nc(O)c(C(=O)NCc3ccccn3)c(=O)n12,103
15,Cc1sc(NC(=O)c2ccco2)nc1-c1ccc2c(c1)CCN2C(=O)C1CC1,107
16,O=C(CC1CCN(C(=O)c2cc3cc(Cl)ccc3[nH]2)CC1)NCc1ccccc1Cl,81.7
17,COc1ccc(Cn2c(=O)c3cccnc3n(-c3ccccc3)c2=O)cc1,118
18,COc1ccc(C(=O)N2CCN(c3nc(C)c(C)c(=O)[nH]3)CC2)cc1,89.9
19,COc1ccc(-c2nsc3c(SCC(C)=O)ncnc23)cc1,145
20,CCOc1ccc(CC(=O)Oc2cc(C)[nH]c(=O)c2[N+](=O)[O-])cc1,117
21,COc1ccc(Br)cc1CNC(=O)c1nccn1Cc1ccccc1C,123
22,Cc1ccc([N+](=O)[O-])cc1N1C(=O)CC(Nc2ccc(N3CCOCC3)cc2)C1=O (centres undefined),91.2
23,Cc1cc2c(=O)n(CC(=O)NC(c3cccs3)C(C)C)cnc2s1 (centres undefined),109
24,C#CCn1/c(=N/C(=O)CN2C(=O)CCC2=O)sc2c3ccccc3ccc21,111
25,COc1ccc(Nc2nc(C)c3nc(C)n(-c4ccc(OC)c(Cl)c4)c3n2)cc1Cl,98.9
26,Cc1ccc(C)c(C(=O)Nc2nc3c(s2)COc2ccccc2-3)c1,133

row,SMILES,host macrophage viability [%]
1,CN1C(=O)c2cccc(NC(=O)c3ccc(Br)s3)c2C1=O,130
2,Cc1ccc(-c2nc(N)n(C(=O)C(c3ccccc3)c3ccccc3)n2)cc1C,102
3,Cc1ccc(S(=O)(=O)N(C)c2cncc(C(=O)NC(C)CCc3ccccc3)c2)cc1 (centres undefined),101
4,Cc1cnc(NC(=O)CSc2ncnc3c(-c4ccc(F)cc4)nsc23)s1,111
5,COc1ccc(Cc2nc3c4c(C)c(C)n(-c5ccc(C)cc5)c4ncn3n2)cc1,125
6,Cc1cc(N2CCN(C(=O)c3ccc(=O)n(C)c3)CC2)nc(C)n1,105
7,O=C(CN1C(=O)c2ccccc2C1=O)Nc1nc2c(s1)CSc1ccccc1-2,124
8,CCOC(=O)CCc1c(C)[nH]c2c(C(=O)Nc3ccccc3C)cnn2c1=O,127
9,Clc1cccc(NCc2nnc3n2CCCCC3)c1,96.1
10,CCC(SC1=Nc2ccccc2C2=NC(C)C(=O)N12)C(=O)Nc1cc(F)ccc1F (centres undefined),115
11,CCc1cc(Sc2nnc(NC(C)=O)s2)n2ncnc2n1,79.2
12,CNC(=O)c1ccsc1NC(=O)CN1C(=O)CCC1=O,117
13,COc1ccccc1NC(=O)C1=C(C)NC(=O)NC1c1ccc(Cl)cc1Cl (centres undefined),114
14,COc1ccc(CCNc2nc(C(F)(F)F)nc3c(C)cc(C)cc23)cc1OC,119
15,CCOC(=O)c1sc2nc(Cc3ccc(OC)c(OC)c3)[nH]c(=O)c2c1C,123
16,O=C(NCc1ccco1)c1ccc2c(c1)C(=O)c1ccccc1-2,115
17,Cc1cc(NC(=O)CSC2=NS(=O)(=O)c3cc(Cl)ccc3N2)no1,112
18,CNc1nc2c(c(=O)n(C)c(=O)n2C)n1CC(O)COc1ccccc1C (centres undefined),130
19,COc1ccccc1N1CCN(c2nccn3nc(-c4ccc(C)c(C)c4)cc23)CC1,94.5
20,CCOCCOC(=O)c1ccc2c(c1)N(Cc1ccncc1)C(=O)c1ccccc1S2,117
21,COC(=O)CSC1=C(C#N)C(c2ccccc2)C(C(=O)Nc2ccccc2OC)=C(C)N1 (centres undefined),135
22,O=C1CCc2cc(S(=O)(=O)Nc3ccccc3N3CCOCC3)ccc2N1,110
23,Cc1ccc(-c2cnnc(-n3nc(C)c4c3NC(=O)CC4c3ccc(C)c(C)c3)n2)cc1 (centres undefined),106
24,Cc1ccc(Cn2c(Sc3nnc(C)s3)nc3c2c(=O)[nH]c(=O)n3C)cc1,111
25,CCOc1ccccc1/C=N/NC(=O)CNC(=O)c1cccs1,124
26,Cc1nc(-c2ccccc2)c(CC(=O)NC(c2ccccc2)c2cccnc2)s1 (centres undefined),116

row,SMILES,host macrophage viability [%]
1,Cc1cc(=O)n2nc(CN(c3ccc(Cl)cc3)S(=O)(=O)c3ccccc3)nc2[nH]1,105
2,COC(=O)COc1cccc2c(=O)n(CC(=O)Nc3ccc([N+](=O)[O-])cc3)ccc12,116
3,O=C(Nc1c(C(=O)Nc2ccccc2F)oc2ccccc12)c1ccc(Br)o1,115 ± 2.4
4,CCOc1ccc2ccccc2c1C(=O)Nn1cnc2c(cnn2-c2ccccc2)c1=O,118
5,COC(=O)c1ccccc1NC(=O)CSc1nnc(CSc2nc(C)cc(C)n2)o1,113
6,Cc1cc(C)c2c(n1)sc1c(=O)n(-c3cccc(C(=O)Nc4ccc(C(C)C)cc4)c3)cnc12,139
7,Clc1ccccc1CCNc1ncnc2oc3c(c12)CCCC3,125
8,CCNc1nc(NCC)n2c(SCC(=O)Nc3ccc([N+](=O)[O-])cc3)nnc2n1,121
9,COc1ccc(C2C(C#N)=C(SC)NC3=C2C(=O)CC(C)(C)C3)cc1 (centres undefined),119
10,CCN1CCN(c2nc3ncn(CC(=O)N4CCN(c5ccc(F)cc5)CC4)c(=O)c3s2)CC1,113
11,O=C(Cn1c(=O)n2nc(-c3ccc(F)cc3)nc2c2ccccc21)N1CCN(c2ccc(F)cc2)CC1,119
12,COC(=O)c1ccc(NC(=O)CSc2nc(-c3ccccc3C)ns2)cc1,113 ± 12
13,Cc1ccnc(SCc2cc(=O)c(OC(=O)c3c(F)cccc3Cl)co2)n1,103
14,Cc1cc(OCC(=O)Nc2ccc3c(c2)nc2n3CCN(C(C)C)C2)ccc1Cl,116
15,Cc1sc(NC(=O)C2(C)CCCO2)nc1-c1cc2ccccc2oc1=O (centres undefined),107
16,Cc1ccc(NC(=O)Cn2cnc3c(cnn3-c3ccc(F)cc3)c2=O)c(C)c1,112 ± 23
17,C=CCn1c(NCCO)nc2sc3c(c2c1=O)CCC3,108 ± 9.3
18,O=C1NC(=S)N/C1=C\c1cc([N+](=O)[O-])ccc1OCc1ccccc1Cl,79.6
19,O=C(NCc1ccccc1Cl)C1CCCN(c2nccnc2Oc2ccccc2)C1 (centres undefined),103
20,O=C(CCn1cnc2onc(-c3cc(F)cc(F)c3)c2c1=O)NCc1cccc(F)c1,106
21,COc1ccc(C(=O)C2CCN(C(=O)Nc3ccccc3F)CC2)cc1,102
22,O=C(Cn1cc(S(=O)(=O)c2ccccc2)c(=O)c2cc(F)ccc21)Nc1cccc(Cl)c1,115
23,CCc1cc(=O)n2ncc(C(=O)Nc3cc(Cl)ccc3C)c2[nH]1,115
24,CC(C)(C)NC(=O)CCn1c(-c2cccnc2)cc2cccnc21,91.5
25,COc1ccccc1/N=c1\oc2ccc(Br)cc2cc1C(=O)NC(C)=O,104
26,COCCn1/c(=N/C(=O)c2ccno2)sc2cc(S(C)(=O)=O)ccc21,110

# 26 entries from above, ordered by molar mass, falling.
row,SMILES,host macrophage viability [%]
11,O=C(Cn1c(=O)n2nc(-c3ccc(F)cc3)nc2c2ccccc21)N1CCN(c2ccc(F)cc2)CC1,119
10,CCN1CCN(c2nc3ncn(CC(=O)N4CCN(c5ccc(F)cc5)CC4)c(=O)c3s2)CC1,113
22,O=C(Cn1cc(S(=O)(=O)c2ccccc2)c(=O)c2cc(F)ccc21)Nc1cccc(Cl)c1,115
6,Cc1cc(C)c2c(n1)sc1c(=O)n(-c3cccc(C(=O)Nc4ccc(C(C)C)cc4)c3)cnc12,139
5,COC(=O)c1ccccc1NC(=O)CSc1nnc(CSc2nc(C)cc(C)n2)o1,113
3,O=C(Nc1c(C(=O)Nc2ccccc2F)oc2ccccc12)c1ccc(Br)o1,115 ± 2.4
1,Cc1cc(=O)n2nc(CN(c3ccc(Cl)cc3)S(=O)(=O)c3ccccc3)nc2[nH]1,105
20,O=C(CCn1cnc2onc(-c3cc(F)cc(F)c3)c2c1=O)NCc1cccc(F)c1,106
4,CCOc1ccc2ccccc2c1C(=O)Nn1cnc2c(cnn2-c2ccccc2)c1=O,118
8,CCNc1nc(NCC)n2c(SCC(=O)Nc3ccc([N+](=O)[O-])cc3)nnc2n1,121
25,COc1ccccc1/N=c1\oc2ccc(Br)cc2cc1C(=O)NC(C)=O,104
14,Cc1cc(OCC(=O)Nc2ccc3c(c2)nc2n3CCN(C(C)C)C2)ccc1Cl,116
2,COC(=O)COc1cccc2c(=O)n(CC(=O)Nc3ccc([N+](=O)[O-])cc3)ccc12,116
13,Cc1ccnc(SCc2cc(=O)c(OC(=O)c3c(F)cccc3Cl)co2)n1,103
24,Cc1ccc(Cn2c(Sc3nnc(C)s3)nc3c2c(=O)[nH]c(=O)n3C)cc1,111
12,COC(=O)c1ccc(NC(=O)CSc2nc(-c3ccccc3C)ns2)cc1,113 ± 12
16,Cc1ccc(NC(=O)Cn2cnc3c(cnn3-c3ccc(F)cc3)c2=O)c(C)c1,112 ± 23
18,O=C1NC(=S)N/C1=C\c1cc([N+](=O)[O-])ccc1OCc1ccccc1Cl,79.6
26,COCCn1/c(=N/C(=O)c2ccno2)sc2cc(S(C)(=O)=O)ccc21,110
15,Cc1sc(NC(=O)C2(C)CCCO2)nc1-c1cc2ccccc2oc1=O (centres undefined),107
21,COc1ccc(C(=O)C2CCN(C(=O)Nc3ccccc3F)CC2)cc1,102
9,COc1ccc(C2C(C#N)=C(SC)NC3=C2C(=O)CC(C)(C)C3)cc1 (centres undefined),119
25,CCOc1ccccc1/C=N/NC(=O)CNC(=O)c1cccs1,124
7,Clc1ccccc1CCNc1ncnc2oc3c(c12)CCCC3,125
24,CC(C)(C)NC(=O)CCn1c(-c2cccnc2)cc2cccnc21,91.5
17,C=CCn1c(NCCO)nc2sc3c(c2c1=O)CCC3,108 ± 9.3

# Next part:

row,SMILES,host macrophage viability [%]
1,CC(=O)c1ccc(Nc2nc(C)nc3c2c(C)c(C)n3-c2ccc(F)cc2)cc1,90.4
2,Cc1nc2c(ccc3nc(NC(=O)c4cc(-c5cccs5)nc5ccccc45)sc32)s1,127 ± 3.3
3,O=C(CSc1nc2c(cnn2-c2ccc(F)cc2)c(=O)[nH]1)N1CCOCC1,101
4,CCOc1ccc(C(=O)NC2CC3CCCC(C2)N3C(=O)Nc2ccc(F)cc2)cc1 (centres undefined),119
5,COc1ccc(-c2nnc3ccc(SCC(=O)Nc4c(C)cc(C)cc4C)nn23)cc1,101 ± 9
6,O=C(Nc1nc2ccc3ccccc3c2s1)c1c(F)cccc1F,122
7,CCOC(=O)c1ccc(CC2SC(=N)NC2=O)cc1 (centres undefined),117
8,COc1ccc(C(NC(=O)c2cccc3c(C)c(C)[nH]c23)c2ccncc2)cc1 (centres undefined),146
9,Oc1nc(SCc2c(F)cccc2Cl)nc2[nH]cnc12,105
10,COC(=O)c1sc2nc(N)c(C#N)c(-c3ccco3)c2c1N,120
11,Cc1cccc(-c2nc(N)n(C(=O)Cc3ccc(Cl)cc3)n2)c1,111
12,COc1cccc(-c2csc(/C(C#N)=C/Nc3cc(Cl)ccc3OC)n2)c1,118 ± 3.1
13,CCCCC(=O)N1CCN(c2nc3ccccc3cc2-c2noc(C)n2)CC1,107
14,CC(=O)Nc1ccc(S(=O)(=O)N2CCN=C2SCc2ccc([N+](=O)[O-])cc2)cc1,122
15,COc1ccc(-n2nnc3c(SCC(=O)NCC4CCCO4)ncnc32)cc1 (centres undefined),95.2 ± 4.9
16,O=C(CCN1C(=O)c2cccc3cccc(c23)C1=O)NC1CCS(=O)(=O)C1 (centres undefined),99.3
17,COc1ccccc1C(=O)n1nc(-c2ccccc2Cl)nc1N,119
18,Cc1sc2nc(SC/C=C/c3ccccc3)[nH]c(=O)c2c1C,116
19,Cc1cc(Nc2ccc(C)c(F)c2)n2nc(Cc3cccc(F)c3)nc2n1,122
20,COc1cccc(-n2c(C)c(C)c3c2ncn2nc(-c4ccccc4Br)nc32)c1,120
21,Cc1ccc(-c2cnc3c(-c4ccc(Cl)cc4)cnn3c2N)cc1,120
22,CC12CC(NC(=O)N1Cc1ccccc1)c1ccccc1O2 (centres undefined),106
23,CCn1c(=O)[nH]c(=O)c2cnc(-c3ccc(OC)cc3)nc21,130
24,COc1cc(NC(=O)CSC2=NS(=O)(=O)c3ccccc3N2)cc(OC)c1,104
25,O=C(NNc1nc2c(Cl)cccc2s1)C1COc2ccccc2O1 (centres undefined),120 ± 8
26,Cn1c(=O)c2c(SCC(=O)NCc3ccco3)ccnc2n(C)c1=O,120
